# From publication PMC12040169 (PLOS Biology, 2025)
# Some of the results follow.
# Test system: T1, CTL2-GFP (C. trachomatis L2/434/Bu, GFP-expressing)
# T1 construct: L2/434/Bu, GFP-expressing
# Set-up: species or system HeLa; Intracellular C. trachomatis growth in HeLa cells, bulk GFP fluorescence relative to DMSO
# Conditions: bulk GFP, single well; 28.5 h, 10 µM; inhibitor
row,Compound,% of control remaining [%]
1,O=C(c1ccc(F)cc1)N1CCC[C@@H]1Cn1c(=O)oc2ccccc21 [CBK284529],124.673
2,O=S(=O)(c1ccc(Cl)s1)N1CCN(c2ccccc2Cl)CC1 [CBK045098],116.821
3,O=C1CNC(=O)C2(C/C=C/C[C@H]3COCC[C@H]3N1)CCN(C(=O)c1ccc(=O)[nH]n1)CC2 [CBK292161],127.276
4,CC1CN(CCC(=O)O)Cc2cc(Cl)ccc2O1 (stereo not shown) [CBK286899],106.19
5,CCN1CC2(CCN(Cc3cc(OC)c(OC)c(OC)c3)CC2)c2ccccc21 [CBK131477],102.667
6,CCN1CC2(CCN(Cc3c(F)cccc3F)CC2)c2ccccc21 [CBK136986],108.062
7,COc1ccc(CCNC(=O)Cn2ccc(C3CCCNC3)n2)cc1 (stereo not shown) [CBK304444],103.803
8,CC(=O)N1CCN(c2ncnc3c2nnn3-c2ccccc2)CC1 [CBK287753],101.234
9,COc1ccc(CCN2C(=O)CC(Nc3ccc(N4CCOCC4)cc3)C2=O)cc1OC (stereo not shown) [CBK266322],176.933
10,CCCc1ccc(S(=O)(=O)Nc2ccccc2C(=O)O)cc1 [CBK042366],100
11,O=C1NCCCC12CCN(Cc1cccs1)CC2 [CBK285346],140.551
12,O=C(NCCO)c1cccc(-c2cncc(N3CCN(Cc4ccccn4)CC3)n2)c1 [CBK065784],151.889
13,COc1ccc(Cc2n[nH]c(=O)n2-c2ccccc2)cc1 [CBK000112],166.655
14,CC(C)(C)C1CCC(OCC(O)CN2CCN(CCO)CC2)CC1 (stereo not shown) [CBK278263C],130.999
15,COc1cc(F)cc(OC2CCNCC2)c1NC(=O)C1=CC(=O)CC(C)(C)O1 [CBK050352T],129.857
16,O=C(NC(c1ccc(Cl)cc1)c1ccsc1)C1CCN(C(=O)Oc2ccc(Cl)cc2)CC1 (stereo not shown) [CBK060044],100
17,COc1cccc(C2CC(=O)c3c(ccc4ccccc34)N2)c1OC (stereo not shown) [CBK262971],121.106
18,CS(=O)(=O)Nc1nccnc1-c1ccc2c(c1)OCO2 [CBK050934],124.081
19,CS(=O)(=O)c1cc(Br)cc(C(=O)NCCNc2cnccn2)c1F [CBK305731],115.969
20,CC(=O)c1sccc1NS(=O)(=O)c1ccccc1 [CBK038384],111.158
21,CCCC/C=C/c1cnc2[nH]c(=O)n(CC(C)C)c2n1 [CBK064225],153.954
22,COc1ccc(-c2nnn(C3CCNCC3)n2)cc1OC [CBK269870C],136.307
23,CS(=O)(=O)N1CCN(c2ccccc2NC(=O)CSc2ccc(Cl)cc2)CC1 [CBK267607],120.027
24,COc1cc(CC(=O)Nc2cccc(-c3ccc(SC(F)(F)F)cc3)c2)cc(OC)c1OC [CBK132426],104.595
25,O=S(=O)(NCc1ccc(F)cc1Cl)c1ccc(Cl)c(Cl)c1 [CBK043785],93.2277
26,Cc1cc(S(=O)(=O)Nc2ccc3[nH]ccc3c2)c(C)o1 [CBK155743],108.758
27,Cc1cc(Oc2ccc(Cl)cc2Cl)nc(OCC#N)n1 [CBK019232],122.115

row,Compound,% of control remaining [%]
1,O=c1[nH]ccn1CCNc1ccc(-c2cccc3cccnc23)cn1 [CBK037658],128.379
2,c1cncc(-c2cnn(-c3ccc4[nH]ccc4c3)n2)c1 [CBK112820],149.633
3,COc1cc(C)nc(OCCNS(=O)(=O)c2cc(C)ccc2C)n1 [CBK058870],164.581
4,COc1ccc(C(=O)N2CCC3(CCCN(CC(=O)Nc4ncccn4)C3)C2)cc1OC (stereo not shown) [CBK132860],87.2873
5,CC(C)c1ccc(CN2CCCN(c3cc(OCCc4c[nH]c5ccccc45)ncn3)CC2)cc1 [CBK083280T],100.722
6,Cc1c(C(=O)N2CCNC(=O)C2(C)C)nnn1Cc1ccc(F)cc1F [CBK305461],145.767
7,CC(=O)c1c(CSc2ccccc2)nn2c1CCCC2 [CBK016543],115.443
8,CN(C)CCN1CCN(c2nc(-c3ccc4[nH]ccc4c3)cn3ccnc23)CC1 [CBK036587],173.685
9,CCCn1cc(CN2C3CCC2CC(O)(c2ccc(F)cc2)C3)cn1 (stereo not shown) [CBK282971],115.621
10,COC(=O)c1cc(C#N)c(=O)n(CC(O)COCc2ccco2)c1 (stereo not shown) [CBK305718],112.589
11,COc1ccc([C@]23CC[C@H](NC(=O)Nc4ccc(F)cc4F)C[C@H]2N(C)CC3)cc1OC [CBK066917T],101.692
12,Nc1nc(CN2CCN(c3ccccc3F)CC2)nc(N2CCCc3ccccc32)n1 [CBK270234],147.887
13,N#Cc1ccccc1-c1ccc(CSc2cccc(F)c2)cc1 [CBK002920],83.1704
14,c1cc(CCCOc2cncc(N3CCCC3)n2)ccn1 [CBK115760],149.379
15,O=C(NCc1nnc(-c2cccs2)o1)C1(c2ccc(F)cc2)CC1 [CBK284638],160.893
16,O=C(O)CCC(=O)Nc1ccc(Br)cc1C(=O)c1ccc(Cl)cc1 [CBK262601],102.979
17,COc1ccc2[nH]c3c(c2c1)CCN(C(C)=O)C31CCN(CCOc2ccccc2)C1 (stereo not shown) [CBK039626],126.889
18,CCN1C(=O)COC[C@@H]1[C@H](O)c1ccc(NC(=O)Cc2ccc(OC)cc2)cc1 [CBK289676],116.052
19,CSc1ncc(CNC(=O)C2CCOc3ccccc3C2)n1C (stereo not shown) [CBK307611],132.571
20,c1ccc(CCN2CCN(CCC(c3ccccc3)c3ccccc3)CC2)cc1 [CBK126432],94.6351
21,CN(C)S(=O)(=O)c1ccc(Cl)c(C(=O)Nc2cccc(C(=O)O)c2)c1 [CBK265727],198.469
22,Cc1nn(C)c(C)c1NC(=O)c1ccc(S(=O)(=O)N(C)C)cc1 [CBK266059],123.585
23,Oc1cc2nnnn2nc1-c1ccccc1 [CBK019550],131.417
24,C/C(=N/OCC(=O)Nc1oc(-c2ccccc2)c(-c2ccccc2)c1C#N)c1cccs1 [CBK262932],100
25,O=S(=O)(NCc1nc2ccccc2[nH]1)c1ccccc1 [CBK269460],125.282
26,O=C(NC[C@H]1O[C@@H](CC(=O)N2CCCC2)[C@H](O)[C@@H]1O)c1cccc(F)c1 [CBK288908],112.969
27,C=CCNC(=O)C[C@@H]1CCN(C(=O)c2ccnc(Cl)c2)C[C@@H]1CC [CBK289136],118.705

# Five records drawn at random from the list so far, as already listed:
row,Compound,% of control remaining [%]
3,COc1cc(C)nc(OCCNS(=O)(=O)c2cc(C)ccc2C)n1 [CBK058870],164.581
3,O=C1CNC(=O)C2(C/C=C/C[C@H]3COCC[C@H]3N1)CCN(C(=O)c1ccc(=O)[nH]n1)CC2 [CBK292161],127.276
11,O=C1NCCCC12CCN(Cc1cccs1)CC2 [CBK285346],140.551
8,CN(C)CCN1CCN(c2nc(-c3ccc4[nH]ccc4c3)cn3ccnc23)CC1 [CBK036587],173.685
8,CC(=O)N1CCN(c2ncnc3c2nnn3-c2ccccc2)CC1 [CBK287753],101.234

# Continuation:

row,Compound,% of control remaining [%]
1,Cc1ccc(C(=O)O)cc1NC(=S)NC1CC1 [CBK288397],149.834
2,CC(CN(C)C(=O)CC1CCN(C(=O)CC2CCCCC2)CC1)c1ccccc1 (stereo not shown) [CBK286268],130.541
3,CCN(CCO)C(=O)C(C)Oc1cc(C)ccc1Cl (stereo not shown) [CBK306019],90.7525
4,COc1ccc(C(=O)Nc2nnc(-c3ccccc3OC)o2)cc1OC [CBK287589],121.283
5,Cn1nccc1-c1cc(C(=O)NC2(C)CCC2)c2ccccc2n1 [CBK281605],147.454
6,O=S(=O)(c1ccc(Br)cc1)N1CCCCC1CO (stereo not shown) [CBK051127],88.0219
7,COc1ccc([C@@]23CCC(CC(=O)O)C[C@@H]2N(C)CC3)cc1OC (stereo partly shown) [CBK045765A],101.063
8,COc1ccc(-c2cnc(N)c(NCc3cccnc3)n2)c(OC)c1OC [CBK063540],168.218
9,O=C(CN1C(=O)c2ccccc2C1=O)Nc1sc2c(c1C(=O)NCC1CCCO1)CCC2 (stereo not shown) [CBK265583],107.536
10,O=C(c1cccnc1)N1C[C@@H]2OCC(=O)N(Cc3ccc(F)cc3)[C@@H]2C1 [CBK289691],160.935
11,O=C(O)C1CCCN(C(=O)NCC2COc3ccccc3O2)C1 (stereo not shown) [CBK161342],96.0432
12,O=C(Cc1ccc(F)cc1)N1CCC(O)(c2ccccn2)CC1 [CBK283588],146.414
13,O=C(O)COc1ccc(N2C(=O)c3ccc(-c4nc5ccccc5c(=O)o4)cc3C2=O)cc1 [CBK265659],90.8182
14,O=C(NCc1nc2ccccc2[nH]1)c1ccc2[nH]ccc2c1 [CBK149079],104.793
15,Cc1ccc(S(=O)(=O)Nc2c(C(=O)O)sc3ncccc23)cc1[N+](=O)[O-] [CBK049983],114.765
16,C=CCn1c2ccccc2c2nnc(SCC(=O)N3c4ccccc4Sc4ccccc43)nc21 [CBK263237],87.4357
17,CCOC(=O)Cn1nc(C)n2c(cc3sc(C)cc32)c1=O [CBK284096],132.807
18,c1ccc2c(c1)nc1n2CN(Cc2ccc3c(c2)OCO3)CN1 [CBK268087],94.0179
19,O=C(O)CSc1ncnc2ccccc12 [CBK262069],100
20,Nc1ccccc1NC(=O)NC(=O)c1ccccc1 [CBK022767],127.801
21,O=C(NCCCc1ccccn1)c1ccnc2ccc(Cl)cc12 [CBK282618],103.32
22,OCc1nc2ccccc2n1CCCCOc1ccccc1Cl [CBK270117],103.34
23,CCn1cc(CCC(=O)NC2CCCOC2)c2ccccc21 (stereo not shown) [CBK283256],147.01
24,Nc1nonc1NC(=O)N/N=C/c1ccc(C(F)(F)F)cc1 [CBK261813],82.9661
25,Cc1ccc(CNC(=O)Cc2csc(N3CCCC3=O)n2)n1C [CBK305642],142.897
